# Screening data, single-dose tests

Source: ChEMBL document CHEMBL3988442, “University of Dundee, Small-Polar-MMV Screening Library” (2021).

A: 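Whole-parasite assay of Trypanosoma brucei over 72 hours; the read-out is not stated. Compounds at 30 µM. Direction is inferred from retests: higher values go with stronger inhibition. Values scatter widely below zero; nearly all retest evidence comes from the higher of the two concentrations used. About 64,000 compounds were tested under these conditions; 1.5% (about 940) showed 50% or more at least once.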
B: 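Assay of Toxoplasma gondii numbers, read through their beta-galactosidase reporter with a colour substrate. Compounds at 10 µM. The record gives no direction; the compounds picked for IC50 retests had high values, so higher reads as fewer parasites. Of about 67,000 compounds tested this way, about 260 (0.38%) reached 50% or more in at least one test.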

Results are given as percent effect. The record does not define 0% and 100%; most values in the screen are far below 50% and negative numbers occur (in some assays of this library far below -100). Compounds were drawn at random from those tested, without regard to their results. A dash means the value is not listed here; it may have been measured.

structure	A	B
CCc1nc2c(s1)C(N(C)C(=O)c1csnn1)CCC2 (configuration not stated)	3.495	-0.4545
N[C@@H]1CCN(Cc2cc(-c3ccccc3OC(F)(F)F)no2)C[C@H]1O	-20.57	-17.54
Cc1cc(=O)c(C(=O)N2CCCCC2c2ccc(F)cc2)c[nH]1 (configuration not stated)	10.41	9.763
Cc1nc2c(c(=O)[nH]1)CCN(C(=O)c1cccc3nccnc13)C2	-18.06	-10.8
CC(C)COc1ccc(C2SCC(=O)Nc3c2c(=O)[nH]n3C(C)C)cc1 (configuration not stated)	-	5.203
CNc1cc(CCNS(=O)(=O)c2ccccc2)nc(-c2ccccn2)n1	-2.959	34.62
O=C(c1cscn1)N1CCc2ncc(CN3CCOCC3)n2CC1	-122.6	18.7
CCOC(=O)c1nnc2ccccc2c1N1CCN(C(C)C)CC1	-30.02	-3.605
CCc1csc(C2CCCN(C(=O)CCn3cc(C)cn3)C2)n1 (configuration not stated)	-7.538	3.03
CC(O)CCN(C)C(=O)Nc1cc(F)cc(Br)c1 (configuration not stated)	-	-6.68
CC(=O)N1CCN(c2ccccc2CNc2ccc(C)cn2)CC1	6.615	9.917
Cc1ccccc1N1CCCN(C(=O)c2cn(C)c3ccccc23)CC1	7.337	9.367
Cc1ccnc(N2CCCC(c3noc(C(C)C)n3)C2)n1 (configuration not stated)	-25.66	-10.42
CC(C)Cn1ccnc1CNC(=O)NC(C)(C)c1nccs1	-98.12	-3.02
CC(=O)N1CCN(CC=C(C)C)CC1	-14.07	3.611
CC(C)Cn1cncc1CNC(=O)c1cccc(-n2cnnc2)c1	-12.1	-5.967
Cc1scc(C(=O)N2CCC3(CCCN(C)C3=O)C2)c1-c1ccccc1 (configuration not stated)	-14.6	-3.347
COc1c(CNCCNC(=O)c2ccccc2F)c(C)nn1C	-6.593	6.605
Cc1nsc(N2CCN(Cc3cccc(F)c3)CC2)n1	-78.79	11.35
CC(C)c1nc(CN(CC(N)=O)C(C)C)cs1	-	7.686
COc1cccc(-n2cc(CN(C)C(=O)c3cnc(O)cn3)cn2)c1	-43.36	4.331
COc1ccccc1C(=O)N(C)Cc1nnc2ccccn12	-	-4.592
COC(=O)CCC(=O)N1CCc2[nH]nc(-c3ccc4c(c3)OCO4)c2C1	-4.165	1.329
CCCc1cnc(C)nc1N1CCC(Cn2cc(CO)nn2)CC1	-81.25	23.67
F[C@@H]1CN(Cc2nccs2)C[C@@H]1OCc1nc2cnccc2[nH]1	0.4585	-0.3223
CCNC(=O)c1cn(C(C)(C)C)c2ncccc12	7.083	-6.48
NC(=O)c1cnc2n1CCN(C(=O)c1cccc(Cn3cccn3)c1)C2	-32.92	21.28
COc1cccc(C2SCC(=O)Nc3ccsc32)c1OC (configuration not stated)	4.218	15.05
Cc1[nH]nc(CCC(=O)N2CCOC(CCc3ccccc3)C2)c1C (configuration not stated)	4.76	4.295
COc1ccc(CNCc2ccnc(N3CCCC3)c2)c(OC)c1.Cl	16.97	7.981
NCCCC(=O)NCC1(O)CCCN(c2ccnc3cccnc23)C1 (configuration not stated)	-10.01	-6.951
Cc1ccc(S(=O)(=O)N2CC(C)Oc3ncccc32)c(F)c1 (configuration not stated)	-20.71	1.772
Cc1cnc(CCNC(=O)C2CN(C(=O)Cc3ccc(F)cc3)C2)s1	-11.54	-3.603
Cc1cc(C)c(CNC(=O)NCC(c2ccccc2)N(C)C)c(=O)[nH]1 (configuration not stated)	32.08	-4.08
Cc1ccc2c(n1)N(CCN(C)C)CCN(C(=O)c1ccco1)C2	-23.94	-8.247
Cc1c(NC(=O)NC2CCCC2)cccc1C(=O)N1CCSCC1	12.05	-12.19
CCC(C(=O)N(Cc1ccccc1OC)C1CC1)n1cccn1 (configuration not stated)	-50.75	-1.051
COc1ncccc1C(=O)N1CCn2c(COCC3CC3)cnc2C1C (configuration not stated)	13.91	-0.7101
CCc1n[nH]c(C2CN(C(=O)Cc3ccc(C)nc3)CCO2)n1 (configuration not stated)	-79.44	0.885
Cc1occc1C(=O)NCCOc1ccc(C(F)(F)F)cn1	-19.93	2.761
COCc1noc(CN2CC(=O)N(C)c3ccccc3C2=O)n1	-6.577	5.06
O=C1NCCN1C1CCN(Cc2ccccn2)CC1	-12.24	-1.616
CNc1cc(N2CCCC2CNCc2ccco2)ncn1 (configuration not stated)	-0.5995	9.738

Once more, the final 4:

Result for Cc1occc1C(=O)NCCOc1ccc(C(F)(F)F)cn1 was A: -19.93%; B: 2.761%.
Result for COCc1noc(CN2CC(=O)N(C)c3ccccc3C2=O)n1 was A: -6.577%; B: 5.06%.
Result for O=C1NCCN1C1CCN(Cc2ccccn2)CC1 was A: -12.24%; B: -1.616%.
Result for CNc1cc(N2CCCC2CNCc2ccco2)ncn1 (configuration not stated) was A: -0.5995%; B: 9.738%.